Read-outs that look alike come from different tables or passages of the source. No constants are given. Whether binding was seen depends on the method and setting. Binding seen in cells or lysates may run through a third protein. Some results given as binding are weak or reduced against the parent protein; the word gives no strength.

The chains behind the UniProt entries cited, without tags or fusion partners. Where a name states a change or a piece, a line headed by the entry shows the natural chain unless it says otherwise. Residues count along the entry.
UniProt Q00959, 23-1464: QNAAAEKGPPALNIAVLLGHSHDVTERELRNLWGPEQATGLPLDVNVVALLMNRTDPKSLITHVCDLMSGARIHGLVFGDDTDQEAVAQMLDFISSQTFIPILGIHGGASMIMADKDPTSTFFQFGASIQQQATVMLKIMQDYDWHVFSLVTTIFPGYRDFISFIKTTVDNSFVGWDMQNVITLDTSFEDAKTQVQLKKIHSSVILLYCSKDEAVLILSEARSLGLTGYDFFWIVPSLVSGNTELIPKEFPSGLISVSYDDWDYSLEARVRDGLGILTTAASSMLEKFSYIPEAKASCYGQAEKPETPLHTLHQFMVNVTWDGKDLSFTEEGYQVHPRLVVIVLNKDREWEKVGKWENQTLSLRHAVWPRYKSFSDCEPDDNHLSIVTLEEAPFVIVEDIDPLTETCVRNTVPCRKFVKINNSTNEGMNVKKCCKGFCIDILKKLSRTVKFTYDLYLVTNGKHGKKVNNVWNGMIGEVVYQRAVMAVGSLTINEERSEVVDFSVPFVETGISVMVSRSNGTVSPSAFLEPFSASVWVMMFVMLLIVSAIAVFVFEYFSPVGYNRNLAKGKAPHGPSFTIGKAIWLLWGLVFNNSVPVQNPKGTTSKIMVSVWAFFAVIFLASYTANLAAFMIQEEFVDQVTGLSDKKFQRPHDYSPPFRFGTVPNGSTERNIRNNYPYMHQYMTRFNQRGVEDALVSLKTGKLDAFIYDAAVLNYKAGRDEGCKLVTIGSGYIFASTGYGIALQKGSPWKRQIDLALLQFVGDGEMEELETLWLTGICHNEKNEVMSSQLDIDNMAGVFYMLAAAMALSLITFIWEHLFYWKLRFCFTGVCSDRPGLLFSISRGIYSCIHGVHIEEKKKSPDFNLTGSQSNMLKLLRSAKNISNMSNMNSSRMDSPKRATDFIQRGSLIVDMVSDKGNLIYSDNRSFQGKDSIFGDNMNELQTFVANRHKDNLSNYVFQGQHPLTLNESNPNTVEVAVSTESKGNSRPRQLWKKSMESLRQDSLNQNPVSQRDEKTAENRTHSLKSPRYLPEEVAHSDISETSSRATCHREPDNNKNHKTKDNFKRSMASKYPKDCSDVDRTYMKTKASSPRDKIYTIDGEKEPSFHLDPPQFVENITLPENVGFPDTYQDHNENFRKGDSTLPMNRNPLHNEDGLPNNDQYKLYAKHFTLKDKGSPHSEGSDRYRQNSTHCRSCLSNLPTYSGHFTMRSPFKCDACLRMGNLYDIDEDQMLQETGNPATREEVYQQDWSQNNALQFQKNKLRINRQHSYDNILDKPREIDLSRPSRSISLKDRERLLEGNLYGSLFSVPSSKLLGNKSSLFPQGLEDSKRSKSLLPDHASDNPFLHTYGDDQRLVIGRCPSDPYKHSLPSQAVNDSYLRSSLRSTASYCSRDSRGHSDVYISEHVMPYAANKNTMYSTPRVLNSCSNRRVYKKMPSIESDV
UniProt Q00960, 27-1482: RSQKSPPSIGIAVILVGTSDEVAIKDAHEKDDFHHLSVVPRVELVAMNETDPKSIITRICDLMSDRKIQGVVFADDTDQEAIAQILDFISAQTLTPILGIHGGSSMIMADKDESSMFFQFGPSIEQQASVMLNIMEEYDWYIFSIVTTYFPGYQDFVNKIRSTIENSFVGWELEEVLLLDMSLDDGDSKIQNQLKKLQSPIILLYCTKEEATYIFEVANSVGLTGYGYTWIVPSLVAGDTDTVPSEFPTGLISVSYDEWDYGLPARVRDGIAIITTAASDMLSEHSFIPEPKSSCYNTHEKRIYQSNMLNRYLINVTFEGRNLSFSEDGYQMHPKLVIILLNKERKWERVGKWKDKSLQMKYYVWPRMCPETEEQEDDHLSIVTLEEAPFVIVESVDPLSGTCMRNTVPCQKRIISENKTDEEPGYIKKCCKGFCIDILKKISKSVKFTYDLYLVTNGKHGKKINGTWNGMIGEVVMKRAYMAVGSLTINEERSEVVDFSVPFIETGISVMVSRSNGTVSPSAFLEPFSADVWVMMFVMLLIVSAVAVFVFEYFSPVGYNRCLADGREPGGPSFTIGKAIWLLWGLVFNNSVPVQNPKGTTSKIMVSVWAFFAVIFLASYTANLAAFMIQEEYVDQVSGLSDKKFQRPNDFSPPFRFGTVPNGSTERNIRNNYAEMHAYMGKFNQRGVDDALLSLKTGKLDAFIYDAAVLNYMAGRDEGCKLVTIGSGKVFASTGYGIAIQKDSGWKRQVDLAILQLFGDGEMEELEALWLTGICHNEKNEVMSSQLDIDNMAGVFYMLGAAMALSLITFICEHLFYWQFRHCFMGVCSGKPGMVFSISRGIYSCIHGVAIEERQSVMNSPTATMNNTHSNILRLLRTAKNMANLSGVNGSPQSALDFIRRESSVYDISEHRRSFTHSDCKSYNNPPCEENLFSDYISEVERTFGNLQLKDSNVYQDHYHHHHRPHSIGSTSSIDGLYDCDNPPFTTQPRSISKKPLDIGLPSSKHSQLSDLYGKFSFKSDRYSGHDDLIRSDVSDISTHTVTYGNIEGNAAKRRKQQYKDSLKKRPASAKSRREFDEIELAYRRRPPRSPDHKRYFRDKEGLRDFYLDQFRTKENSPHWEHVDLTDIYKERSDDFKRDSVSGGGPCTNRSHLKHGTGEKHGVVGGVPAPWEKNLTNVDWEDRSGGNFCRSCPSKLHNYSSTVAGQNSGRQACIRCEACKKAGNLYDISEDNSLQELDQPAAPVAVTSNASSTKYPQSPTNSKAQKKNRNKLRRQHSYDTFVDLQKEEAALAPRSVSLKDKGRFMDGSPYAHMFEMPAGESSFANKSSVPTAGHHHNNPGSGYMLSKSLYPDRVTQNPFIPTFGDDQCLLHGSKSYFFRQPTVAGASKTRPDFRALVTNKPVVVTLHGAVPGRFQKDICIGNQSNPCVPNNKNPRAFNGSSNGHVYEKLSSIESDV
UniProt Q91YD4, whole entry: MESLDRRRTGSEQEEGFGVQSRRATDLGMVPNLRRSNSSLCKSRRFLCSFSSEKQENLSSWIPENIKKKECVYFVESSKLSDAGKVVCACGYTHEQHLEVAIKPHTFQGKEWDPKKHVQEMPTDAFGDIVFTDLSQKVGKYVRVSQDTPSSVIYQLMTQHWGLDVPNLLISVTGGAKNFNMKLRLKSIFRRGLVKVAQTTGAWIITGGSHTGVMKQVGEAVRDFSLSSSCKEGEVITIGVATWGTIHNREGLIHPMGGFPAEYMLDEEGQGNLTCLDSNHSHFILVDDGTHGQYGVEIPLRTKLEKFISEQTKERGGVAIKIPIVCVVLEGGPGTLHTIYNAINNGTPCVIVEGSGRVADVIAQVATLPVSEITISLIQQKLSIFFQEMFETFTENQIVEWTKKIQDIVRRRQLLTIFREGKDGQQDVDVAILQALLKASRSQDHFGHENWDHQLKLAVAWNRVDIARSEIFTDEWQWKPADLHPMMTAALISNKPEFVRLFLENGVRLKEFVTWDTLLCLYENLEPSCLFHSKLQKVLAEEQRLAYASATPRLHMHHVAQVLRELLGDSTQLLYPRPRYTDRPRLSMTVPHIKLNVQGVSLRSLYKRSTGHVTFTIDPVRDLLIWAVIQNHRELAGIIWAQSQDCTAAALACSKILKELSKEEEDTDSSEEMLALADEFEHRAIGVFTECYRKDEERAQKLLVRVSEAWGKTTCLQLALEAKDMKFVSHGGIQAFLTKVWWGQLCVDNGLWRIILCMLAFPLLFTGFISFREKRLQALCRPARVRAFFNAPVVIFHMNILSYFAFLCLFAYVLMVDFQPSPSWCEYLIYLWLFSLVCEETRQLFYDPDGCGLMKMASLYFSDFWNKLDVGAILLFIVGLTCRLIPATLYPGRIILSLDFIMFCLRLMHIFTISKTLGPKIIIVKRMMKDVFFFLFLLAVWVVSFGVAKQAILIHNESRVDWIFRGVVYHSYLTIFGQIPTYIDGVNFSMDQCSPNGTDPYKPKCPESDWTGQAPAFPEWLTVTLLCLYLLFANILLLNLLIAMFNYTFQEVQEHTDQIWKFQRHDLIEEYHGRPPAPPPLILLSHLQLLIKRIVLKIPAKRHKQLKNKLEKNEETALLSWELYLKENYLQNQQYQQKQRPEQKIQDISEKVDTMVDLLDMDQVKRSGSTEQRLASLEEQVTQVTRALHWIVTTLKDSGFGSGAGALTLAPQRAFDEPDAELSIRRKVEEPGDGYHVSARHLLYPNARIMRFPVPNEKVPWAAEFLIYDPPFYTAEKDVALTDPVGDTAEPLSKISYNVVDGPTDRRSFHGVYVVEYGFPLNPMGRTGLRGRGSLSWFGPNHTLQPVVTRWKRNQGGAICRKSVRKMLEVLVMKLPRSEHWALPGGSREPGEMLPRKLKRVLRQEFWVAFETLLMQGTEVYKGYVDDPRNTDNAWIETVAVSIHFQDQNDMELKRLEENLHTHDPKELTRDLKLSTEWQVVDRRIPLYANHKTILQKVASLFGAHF
UniProt Q01097, 27-1482: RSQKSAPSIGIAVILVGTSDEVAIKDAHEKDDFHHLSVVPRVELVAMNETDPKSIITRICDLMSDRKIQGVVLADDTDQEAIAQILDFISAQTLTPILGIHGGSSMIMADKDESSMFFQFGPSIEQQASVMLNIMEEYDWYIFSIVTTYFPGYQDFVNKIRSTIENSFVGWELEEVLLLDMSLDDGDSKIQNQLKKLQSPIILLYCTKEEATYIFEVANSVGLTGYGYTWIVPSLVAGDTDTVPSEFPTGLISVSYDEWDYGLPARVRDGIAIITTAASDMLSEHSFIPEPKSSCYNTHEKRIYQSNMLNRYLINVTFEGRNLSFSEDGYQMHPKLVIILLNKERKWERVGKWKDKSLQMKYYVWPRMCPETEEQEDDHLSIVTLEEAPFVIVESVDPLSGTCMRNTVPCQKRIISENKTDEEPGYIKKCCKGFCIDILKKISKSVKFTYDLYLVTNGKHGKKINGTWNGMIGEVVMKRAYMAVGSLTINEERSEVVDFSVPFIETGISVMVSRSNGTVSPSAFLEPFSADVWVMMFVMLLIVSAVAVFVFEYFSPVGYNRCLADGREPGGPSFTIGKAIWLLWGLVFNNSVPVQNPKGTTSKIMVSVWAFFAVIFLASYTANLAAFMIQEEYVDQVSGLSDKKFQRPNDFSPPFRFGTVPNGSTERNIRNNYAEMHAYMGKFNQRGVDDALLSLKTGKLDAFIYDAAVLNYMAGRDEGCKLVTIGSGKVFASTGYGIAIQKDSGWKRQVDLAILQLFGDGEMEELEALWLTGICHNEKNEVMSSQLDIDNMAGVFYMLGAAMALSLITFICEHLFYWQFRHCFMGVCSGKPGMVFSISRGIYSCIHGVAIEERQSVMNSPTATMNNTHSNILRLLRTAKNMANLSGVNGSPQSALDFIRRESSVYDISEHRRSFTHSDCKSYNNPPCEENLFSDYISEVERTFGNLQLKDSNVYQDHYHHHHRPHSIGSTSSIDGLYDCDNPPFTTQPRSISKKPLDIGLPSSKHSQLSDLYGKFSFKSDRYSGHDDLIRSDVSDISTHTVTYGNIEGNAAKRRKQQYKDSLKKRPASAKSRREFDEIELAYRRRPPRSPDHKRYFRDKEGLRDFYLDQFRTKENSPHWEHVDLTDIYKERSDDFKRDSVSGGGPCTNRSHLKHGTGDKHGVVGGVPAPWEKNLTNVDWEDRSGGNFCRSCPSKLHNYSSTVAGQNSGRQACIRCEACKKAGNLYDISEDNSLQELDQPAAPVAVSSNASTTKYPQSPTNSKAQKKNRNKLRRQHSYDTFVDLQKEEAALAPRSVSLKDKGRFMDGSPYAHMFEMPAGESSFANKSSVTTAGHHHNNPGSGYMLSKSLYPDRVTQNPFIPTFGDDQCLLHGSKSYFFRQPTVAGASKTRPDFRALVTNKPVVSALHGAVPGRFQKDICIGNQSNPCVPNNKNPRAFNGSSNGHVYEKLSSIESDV

Holding throughout (assay): co-IP
The target of assay [1] is GluN2A (NMDAR subunit GluN2a) (UniProt Q00959).
The target in assay [2] is GluN2B (NMDAR subunit GluN2b) (UniProt Q00960).
The target of assay [3] is GluN2A (NMDAR subunit GluN2a) (UniProt Q00959). This is another data set of the same source.
The target in assay [4] is GluN2B (NMDAR subunit GluN2b) (UniProt Q00960). This is another data set of the same source.
Assay [5] concerns the target Flag-TRPM2-NT, N-terminal fragment of TRPM2 (1-727) (human) (UniProt O94759).
Assay [6] addresses Flag-tagged TRPM2 (Flag-TRPM2), full length (human) (UniProt O94759).
Assay [7] concerns the target TRPM2-EEQ (E680Q and E681Q) (human) (UniProt O94759).
Assay [8] addresses TRPM2-EQE (E673Q and E674Q) (human) (UniProt O94759).
Assay [9] addresses TRPM2-QEE (E666Q and E667Q) (human) (UniProt O94759).
The target in assay [10] is Flag-tagged TRPM2 (Flag-TRPM2), full length (human) (UniProt O94759). This is another data set of the same source.
Assay [11] deals with GluN1a (NMDAR subunit GluN1) (UniProt P35439).
For assay [12], the target named is endogenous TRPM2 of mouse brain (mouse (endogenous in brain)) (UniProt Q91YD4).
Assay [13] concerns the target GFP-TRPM2-CT, C-terminal fragment of TRPM2 (1060-1503) (human) (UniProt O94759).
Assay [14] has as its target endogenous GluN2a of mouse brain (mouse (endogenous in brain)) (UniProt P35436).
Assay [15] addresses endogenous GluN2b of mouse brain (mouse (endogenous in brain)) (UniProt Q01097).
Assay [16] has as its target endogenous TRPM2 of mouse brain (mouse (endogenous in brain)) (UniProt Q91YD4). The source holds these as a separate data set.

For the substance “Flag-tagged TRPM2 (Flag-TRPM2), full length (from UniProt O94759 1-1503)”, the binding entry in assay [1], in assay [2], in [3] and in assay [4] was “binds” each time.
Turning to “TRPM2-EEQ (E680Q and E681Q) (from UniProt O94759 1-1503)”, the binding result in [1] and in assay [2] was “binds” in each case.
In the case of “GluN2A (NMDAR subunit GluN2a) (from UniProt Q00959 23-1464)”, the binding entry in [5] is “binds”; in [6], “binds”; in assay [7], “binds”; in [8], “no binding”; in [9], “binds”; in [10], “binds”.
As to “Flag-TRPM2 N-terminal fragment 1-664 (from UniProt O94759 1-664) (domain or fragment)”, the binding entry in assay [1] and in assay [2] was “no binding” in each case.
Regarding “GFP-TRPM2-CT, C-terminal fragment of TRPM2 (1060-1503) (from UniProt O94759 1060-1503) (domain or fragment)”, the binding entry in assay [11], in assay [1] and in [2] was “no binding” throughout.
Regarding “endogenous GluN2b of mouse brain (from UniProt Q01097 27-1482)”, the binding result in assay [12] was “binds”.
In the case of “GluN2B (NMDAR subunit GluN2b) (from UniProt Q00960 27-1482)”, the binding entry in assay [5] is recorded as “binds”; in assay [6] it was “binds”; in assay [7] it was “binds”; in [8], “no binding”; in [9], “binds”; in assay [10], “binds”.
Take “TRPM2-QEE (E666Q and E667Q) (from UniProt O94759 1-1503)”: the binding entry in assay [1] and in assay [2] was “binds” each time.
On to “Flag-TRPM2 N-terminal segment 1-631 (from UniProt O94759 1-631) (domain or fragment)”, for which the binding entry in assay [1] and in assay [2] was “no binding” each time.
“Flag-TRPM2 N-terminal segment 1-570 (from UniProt O94759 1-570) (domain or fragment)”: the binding result in assay [1] and in assay [2] was “no binding” throughout.
On to “PKC-γ (over-expressed) (from UniProt P05129 1-697) (enzyme)”, for which the binding result is “binds” in [5], “binds” in assay [6] and “no binding” in [13].
Consider “TRPM2-EQE (E673Q and E674Q) (from UniProt O94759 1-1503)”, for which the binding entry in assay [1] and in assay [2] was “no binding” in each case.
With “endogenous GluN2a of mouse brain (from UniProt P35436 23-1464)”, the binding result in assay [12] was “binds”.
“endogenous TRPM2 of mouse brain (from UniProt Q91YD4 1-1506)”: the binding result in assay [14] and in [15] was “binds” each time.
In the case of “Flag-TRPM2-NT, N-terminal fragment of TRPM2 (1-727) (from UniProt O94759 1-727) (domain or fragment)”, the binding entry in [1] and in assay [2] was “binds” throughout.
Turning to “endogenous PKCγ of mouse brain and neurons (from UniProt P63318 1-697) (enzyme)”, the binding entry in assay [12] and in assay [16] was “binds” in each case.
